Experimental data: PubChem BioAssay AID504793 (Drosophila RNAi Screening Center, 2011)
In all, the deposit lists about 23,000 reagents; shown is an unselected part of those that have a named target and a result. In the full data, 62 (0.27%) got an active call. 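Calls come from follow-up tests whose scores are not deposited, so confirmed genes may have low counts here; counts are not normalised per plate.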 The raw values are shown without normalisation. The numbers tell different reagents against one gene apart. A plus sign joins genes that one reagent is predicted to hit.

Assay: 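Whole-genome screen for parts of the DNA damage checkpoint at G2/M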 (primary screen)
System: Drosophila S2R+ cells
Knock-down reagent: long dsRNA against Drosophila genes, about 0.25 µg dsRNA per well
Timing: 4 days of dsRNA, then 4 hours of drug before read-out
Challenge: doxorubicin 0.5 µM for 4 hours to cause double-strand breaks, in cells also given a low, harmless dose of dsRNA against nbs to sensitise the assay
Measurement: 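Per-well count of mitotic cells stained for phospho-histone H3 after doxorubicin exposure, used as mitotic index; counts are raw and not normalised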
Direction: mitotic cells: higher = more cells in mitosis, weaker G2 arrest
Rule for the call: 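a call needs confirmation in secondary tests, with other dsRNAs and a check of mitotic timing without damage, not just a high primary count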
Meaning of the calls: active = confirmed in follow-up tests; inactive = not confirmed

CG13698 showed mitotic cells, replicate 1 = 4; inactive. Knock-down of CG10171 #1 gave: mitotic cells, replicate 1 = 6; inactive. Silencing of CG10171 #2 resulted in: mitotic cells, replicate 1 = 6; inactive. CG5355 gave mitotic cells, replicate 1 = 5; inactive. Silencing of Prps #1 resulted in: mitotic cells, replicate 1 = 8; inactive. Depletion of Prps #2 resulted in: mitotic cells, replicate 1 = 6; inactive.

For Prps #3 the deposit lists mitotic cells, replicate 1 = 3; inactive. For Smox the deposit lists mitotic cells, replicate 1 = 4; inactive. Silencing of Nnf1a came out at: mitotic cells, replicate 1 = 8; inactive. Knock-down of CG13603 resulted in: mitotic cells, replicate 1 = 2; inactive. Silencing of Der-1 gave: mitotic cells, replicate 1 = 8; inactive. Depletion of Saysd1 gave: mitotic cells, replicate 1 = 7; inactive.

Against CROT #1, the values are mitotic cells, replicate 1 = 2; inactive. For CROT #2, the values are mitotic cells, replicate 1 = 5; inactive. Knock-down of CROT #3 resulted in: mitotic cells, replicate 1 = 6; inactive. With knock-down of Ir67a, the record shows mitotic cells, replicate 1 = 6; inactive. For CG17801 the deposit lists mitotic cells, replicate 1 = 12; inactive. Vhl #1 scored mitotic cells, replicate 1 = 7; inactive.

For Vhl #2, the entry reads mitotic cells, replicate 1 = 6; inactive. CG30371 gave mitotic cells, replicate 1 = 9; inactive. Against Cyp313a5 the deposit lists mitotic cells, replicate 1 = 9; inactive. Depletion of CG11629 resulted in: mitotic cells, replicate 1 = 14; inactive. Against CG8188 #1, the entry reads mitotic cells, replicate 1 = 15; inactive. With knock-down of CG8188 #2, the screen gave mitotic cells, replicate 1 = 4; inactive.

Silencing of mbm + CG11555 came out at: mitotic cells, replicate 1 = 5; inactive. With knock-down of CG8944 #1, the record shows mitotic cells, replicate 1 = 6; inactive. After knock-down of CG8944 #2, the record shows mitotic cells, replicate 1 = 20; inactive. After knock-down of CG8944 #3, the screen gave mitotic cells, replicate 1 = 8; inactive. Knock-down of Ugt35D1 resulted in: mitotic cells, replicate 1 = 8; inactive. For CG2962 #1, the entry reads mitotic cells, replicate 1 = 9; inactive.

Silencing of CG2962 #2 came out at: mitotic cells, replicate 1 = 5; inactive. Against tplus3a + tplus3b, the values are mitotic cells, replicate 1 = 7; inactive. puml gave mitotic cells, replicate 1 = 6; inactive. Silencing of CG17376 came out at: mitotic cells, replicate 1 = 8; inactive. CG6168 showed mitotic cells, replicate 1 = 2; inactive. CG13309 showed mitotic cells, replicate 1 = 8; inactive.

After knock-down of Etfb the results were mitotic cells, replicate 1 = 6; inactive. Osi5 showed mitotic cells, replicate 1 = 7; inactive. Silencing of Cpr100A #1 resulted in: mitotic cells, replicate 1 = 5; inactive. After knock-down of Cpr100A #2, the record shows mitotic cells, replicate 1 = 7; inactive. Silencing of CG8008 #1 resulted in: mitotic cells, replicate 1 = 2; inactive. Silencing of CG8008 #2 came out at: mitotic cells, replicate 1 = 2; inactive.

CG7841 showed mitotic cells, replicate 1 = 11; inactive.

Laid out differently: results already given
gene | reagent | mitotic cells, replicate 1 | Outcome
CG8008 | 1 | 2 | inactive
CG8008 | 2 | 2 | inactive
CG7841 | 1 | 11 | inactive
